No constants are given. Whether binding was seen depends on the method and setting. In cells and extracts the contact can be indirect. Some binding calls cover weakened binding; strength is not graded here.
Biological target: cAMP response element-binding protein (Creb), phosphorylated (pCreb) (rat (endogenous in Clone 9 cells)) (UniProt P15337)
Assay: co-IP; RNA immunoprecipitation (Magna RIP kit): C9 cell lysate incubated in RIP buffer with magnetic beads coated with anti-Creb (pCreb) antibody or control IgG; proteins of the precipitate analysed by western blot; 10% input

Protein sequences, listed by entry. Tags and fused reporters are not part of them. Lines headed by an entry give the natural chain unless they say otherwise; changes in a name come on top. Chains listed by the source or under a name are the forms on record and can include a tag or linker.
cAMP response element-binding protein (Creb), phosphorylated (pCreb) (rat (endogenous in Clone 9 cells)) (P15337, form named): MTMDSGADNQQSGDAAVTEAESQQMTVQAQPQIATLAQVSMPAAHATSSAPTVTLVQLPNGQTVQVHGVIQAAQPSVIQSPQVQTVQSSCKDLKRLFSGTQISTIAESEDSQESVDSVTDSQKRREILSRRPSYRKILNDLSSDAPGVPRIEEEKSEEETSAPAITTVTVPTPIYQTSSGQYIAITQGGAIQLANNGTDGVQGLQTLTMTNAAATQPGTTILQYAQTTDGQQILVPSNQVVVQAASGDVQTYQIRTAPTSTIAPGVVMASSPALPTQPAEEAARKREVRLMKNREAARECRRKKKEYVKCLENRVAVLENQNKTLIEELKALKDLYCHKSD
UniProt Q6JHU9: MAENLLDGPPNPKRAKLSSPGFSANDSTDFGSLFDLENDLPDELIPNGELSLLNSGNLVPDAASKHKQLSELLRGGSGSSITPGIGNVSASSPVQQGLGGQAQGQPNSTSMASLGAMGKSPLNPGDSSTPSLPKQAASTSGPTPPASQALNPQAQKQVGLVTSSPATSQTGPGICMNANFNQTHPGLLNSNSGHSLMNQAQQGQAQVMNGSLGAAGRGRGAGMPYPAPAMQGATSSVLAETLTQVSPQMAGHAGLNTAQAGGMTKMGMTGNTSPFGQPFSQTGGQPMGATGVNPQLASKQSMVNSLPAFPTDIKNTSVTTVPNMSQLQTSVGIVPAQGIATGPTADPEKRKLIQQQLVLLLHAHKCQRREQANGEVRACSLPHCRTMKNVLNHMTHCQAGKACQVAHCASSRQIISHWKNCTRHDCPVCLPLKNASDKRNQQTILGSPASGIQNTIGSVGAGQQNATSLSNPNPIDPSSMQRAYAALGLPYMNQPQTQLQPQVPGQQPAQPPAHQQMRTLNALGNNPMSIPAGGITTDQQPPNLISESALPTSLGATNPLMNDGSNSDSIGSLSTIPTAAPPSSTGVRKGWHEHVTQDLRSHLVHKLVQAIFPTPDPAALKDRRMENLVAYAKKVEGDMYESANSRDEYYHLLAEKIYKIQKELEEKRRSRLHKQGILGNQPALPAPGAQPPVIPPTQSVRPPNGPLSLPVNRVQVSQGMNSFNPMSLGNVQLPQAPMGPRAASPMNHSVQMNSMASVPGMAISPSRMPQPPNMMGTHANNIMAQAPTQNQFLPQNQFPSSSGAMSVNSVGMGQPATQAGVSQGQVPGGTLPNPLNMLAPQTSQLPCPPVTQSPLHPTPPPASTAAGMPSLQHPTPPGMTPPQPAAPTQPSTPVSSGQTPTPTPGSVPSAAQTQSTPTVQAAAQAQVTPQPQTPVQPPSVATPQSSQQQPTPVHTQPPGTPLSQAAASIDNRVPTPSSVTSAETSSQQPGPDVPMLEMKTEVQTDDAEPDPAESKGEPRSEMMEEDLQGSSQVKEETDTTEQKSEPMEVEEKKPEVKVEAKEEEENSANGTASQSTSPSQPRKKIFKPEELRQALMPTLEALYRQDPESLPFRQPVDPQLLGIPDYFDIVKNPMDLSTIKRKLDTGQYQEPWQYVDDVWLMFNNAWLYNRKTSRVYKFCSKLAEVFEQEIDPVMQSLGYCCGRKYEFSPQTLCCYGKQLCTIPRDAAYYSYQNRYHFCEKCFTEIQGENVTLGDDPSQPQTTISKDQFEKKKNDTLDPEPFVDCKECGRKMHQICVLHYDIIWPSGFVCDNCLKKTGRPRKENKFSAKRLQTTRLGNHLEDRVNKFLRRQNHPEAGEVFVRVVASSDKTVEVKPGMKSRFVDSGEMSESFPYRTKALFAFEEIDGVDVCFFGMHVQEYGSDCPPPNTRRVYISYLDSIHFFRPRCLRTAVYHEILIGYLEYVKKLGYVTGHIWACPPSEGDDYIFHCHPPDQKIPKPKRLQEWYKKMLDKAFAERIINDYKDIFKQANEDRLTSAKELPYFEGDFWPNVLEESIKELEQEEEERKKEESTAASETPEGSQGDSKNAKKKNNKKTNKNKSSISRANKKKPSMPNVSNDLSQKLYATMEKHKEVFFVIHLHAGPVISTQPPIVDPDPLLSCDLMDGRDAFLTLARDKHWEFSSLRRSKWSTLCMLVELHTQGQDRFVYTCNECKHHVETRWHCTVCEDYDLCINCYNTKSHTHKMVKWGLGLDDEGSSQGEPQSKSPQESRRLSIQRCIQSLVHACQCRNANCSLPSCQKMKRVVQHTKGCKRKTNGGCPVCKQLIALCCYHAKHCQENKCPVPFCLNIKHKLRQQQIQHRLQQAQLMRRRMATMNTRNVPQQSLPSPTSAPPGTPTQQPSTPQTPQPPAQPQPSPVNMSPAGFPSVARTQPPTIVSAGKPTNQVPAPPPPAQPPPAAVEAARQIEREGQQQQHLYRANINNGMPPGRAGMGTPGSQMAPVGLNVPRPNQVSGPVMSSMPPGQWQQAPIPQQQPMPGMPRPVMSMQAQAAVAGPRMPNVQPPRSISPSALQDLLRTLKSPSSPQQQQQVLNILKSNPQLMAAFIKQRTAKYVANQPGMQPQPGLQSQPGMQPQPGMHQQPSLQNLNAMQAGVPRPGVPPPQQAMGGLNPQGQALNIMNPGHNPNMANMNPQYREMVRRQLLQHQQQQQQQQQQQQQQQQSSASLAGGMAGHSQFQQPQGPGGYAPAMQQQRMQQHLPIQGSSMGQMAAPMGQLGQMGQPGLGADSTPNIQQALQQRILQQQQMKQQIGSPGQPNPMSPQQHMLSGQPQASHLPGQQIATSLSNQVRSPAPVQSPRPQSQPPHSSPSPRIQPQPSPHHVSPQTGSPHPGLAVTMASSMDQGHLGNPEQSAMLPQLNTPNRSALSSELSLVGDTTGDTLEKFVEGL

binding: binds
Substance: cAMP response element-binding protein-binding protein (CBP) (from UniProt Q6JHU9 1-2442)
